{"source": "patent US10456414B2", "about": "“Methods for treating HCV” (priority 2011, dated 2019)", "tested_on": "HCV 1b replicon system (Huh-luc)", "assay": "Antiviral combination studies with Compound 6, MacSynergy II", "settings": "in combination with Compound 6", "note": "For at least one compound, name, drawing or mass did not settle the structure."}
{"compound": "Fc1ccccc1-c1nc2ccn(Cc3ccc(-c4ccc(C(F)(F)F)cc4C(F)(F)F)nn3)cc-2n1", "note": "[Compound 1, 5-((6-(2,4-bis(trifluoromethyl)phenyl)pyridazin-3-yl)methyl)-2-(2-fluorophenyl)-5H-imidazo[4,5-c]pyridine]", "values": [{"measurement": "Interaction", "result": "Minor Synergy"}]}
